The target of assay [1] is T1, DDIAS-pT775 peptide, biotinylated (human).
T1 sequence (peptide, biotin on the N terminus; phosphothreonine at Thr775 ([pThr])): SGSGSQDFVPCSQSTPIS
Put plainly: pull-down.

For a further assay, the target named is T2, Halo-DDIAS T775A (human) (UniProt Q8IXT1).
T2 sequence: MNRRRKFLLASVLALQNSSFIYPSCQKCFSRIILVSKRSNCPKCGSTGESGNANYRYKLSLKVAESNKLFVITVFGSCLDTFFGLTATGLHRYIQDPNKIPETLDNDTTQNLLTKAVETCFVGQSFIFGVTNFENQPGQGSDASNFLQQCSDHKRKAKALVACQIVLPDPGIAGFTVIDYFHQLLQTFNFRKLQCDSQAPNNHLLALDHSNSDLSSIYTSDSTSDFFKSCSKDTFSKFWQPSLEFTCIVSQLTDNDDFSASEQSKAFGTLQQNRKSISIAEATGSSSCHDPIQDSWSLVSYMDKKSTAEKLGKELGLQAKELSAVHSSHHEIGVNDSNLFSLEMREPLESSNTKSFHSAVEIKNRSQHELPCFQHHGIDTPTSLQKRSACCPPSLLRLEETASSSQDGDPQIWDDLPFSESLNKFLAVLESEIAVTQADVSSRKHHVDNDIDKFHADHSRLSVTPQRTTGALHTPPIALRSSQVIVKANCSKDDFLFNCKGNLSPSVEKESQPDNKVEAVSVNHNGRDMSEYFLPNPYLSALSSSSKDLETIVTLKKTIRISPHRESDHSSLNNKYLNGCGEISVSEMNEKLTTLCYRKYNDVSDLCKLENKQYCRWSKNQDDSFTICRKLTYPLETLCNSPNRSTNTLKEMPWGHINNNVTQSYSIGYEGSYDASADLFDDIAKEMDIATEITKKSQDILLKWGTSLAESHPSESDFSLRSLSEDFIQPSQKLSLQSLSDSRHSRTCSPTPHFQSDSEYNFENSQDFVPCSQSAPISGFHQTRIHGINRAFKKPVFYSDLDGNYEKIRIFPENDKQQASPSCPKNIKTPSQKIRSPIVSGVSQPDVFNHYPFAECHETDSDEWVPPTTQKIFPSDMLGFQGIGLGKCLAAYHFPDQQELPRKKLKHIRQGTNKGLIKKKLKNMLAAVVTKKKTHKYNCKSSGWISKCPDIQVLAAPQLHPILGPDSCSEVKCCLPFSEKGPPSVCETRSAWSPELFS
Put plainly: co-IP.

Assay [2] has as its target T3, Halo-tagged DDIAS, wild type (human) (UniProt Q8IXT1).
T3 sequence: T2 sequence with A775T
Put plainly: co-IP.

Positions count from the first letter of the chain named. These are yes or no findings as the source states them, for the method shown. Binding seen in cells or lysates may run through a third protein. Some entries that bind do so weakly or less than the wild type. For part of these data: Where a sequence is shown, tags or fusion partners need not be part of it.

Consider “PLK1, endogenous in 293FT cells (from UniProt P53350 1-603) (enzyme)”, for which the binding result was “binds” in assay [1], “binds weakly” with Halo-DDIAS T775A (human) and “binds” in assay [2].

For the origin of these results see publication doi:10.1101/2025.09.09.675193.
